# Data reported in the supplement of paper PMC7666118.
# The chains behind the UniProt entries cited, without tags or fusion partners. Where a name states a change or a piece, a line headed by the entry shows the natural chain unless it says otherwise.
# UniProt O60566, whole entry: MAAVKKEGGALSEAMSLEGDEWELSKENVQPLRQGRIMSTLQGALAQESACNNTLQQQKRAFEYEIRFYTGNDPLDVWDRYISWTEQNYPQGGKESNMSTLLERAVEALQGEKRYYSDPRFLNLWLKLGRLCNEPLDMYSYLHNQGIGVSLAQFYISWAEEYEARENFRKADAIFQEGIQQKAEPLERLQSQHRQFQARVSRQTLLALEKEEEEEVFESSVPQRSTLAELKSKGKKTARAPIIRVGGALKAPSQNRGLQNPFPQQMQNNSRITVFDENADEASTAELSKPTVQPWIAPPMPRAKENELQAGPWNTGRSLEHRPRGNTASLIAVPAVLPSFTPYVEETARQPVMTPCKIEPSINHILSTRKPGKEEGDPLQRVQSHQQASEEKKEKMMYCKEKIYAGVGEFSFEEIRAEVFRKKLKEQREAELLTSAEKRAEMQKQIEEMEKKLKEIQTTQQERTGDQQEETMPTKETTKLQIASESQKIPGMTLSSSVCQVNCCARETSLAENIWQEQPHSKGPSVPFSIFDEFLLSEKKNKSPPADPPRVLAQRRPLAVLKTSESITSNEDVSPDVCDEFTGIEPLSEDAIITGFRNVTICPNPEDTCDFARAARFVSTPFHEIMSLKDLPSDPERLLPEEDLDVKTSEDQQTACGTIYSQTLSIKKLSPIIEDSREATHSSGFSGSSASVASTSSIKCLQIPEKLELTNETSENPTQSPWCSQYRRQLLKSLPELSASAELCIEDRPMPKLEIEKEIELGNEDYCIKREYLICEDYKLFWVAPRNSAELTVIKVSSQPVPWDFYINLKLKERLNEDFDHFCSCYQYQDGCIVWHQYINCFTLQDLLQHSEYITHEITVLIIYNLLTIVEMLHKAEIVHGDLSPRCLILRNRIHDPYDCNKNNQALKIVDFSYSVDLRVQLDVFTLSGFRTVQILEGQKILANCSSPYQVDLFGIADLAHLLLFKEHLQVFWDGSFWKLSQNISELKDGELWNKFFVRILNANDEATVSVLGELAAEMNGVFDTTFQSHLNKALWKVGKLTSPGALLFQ
# UniProt P98194: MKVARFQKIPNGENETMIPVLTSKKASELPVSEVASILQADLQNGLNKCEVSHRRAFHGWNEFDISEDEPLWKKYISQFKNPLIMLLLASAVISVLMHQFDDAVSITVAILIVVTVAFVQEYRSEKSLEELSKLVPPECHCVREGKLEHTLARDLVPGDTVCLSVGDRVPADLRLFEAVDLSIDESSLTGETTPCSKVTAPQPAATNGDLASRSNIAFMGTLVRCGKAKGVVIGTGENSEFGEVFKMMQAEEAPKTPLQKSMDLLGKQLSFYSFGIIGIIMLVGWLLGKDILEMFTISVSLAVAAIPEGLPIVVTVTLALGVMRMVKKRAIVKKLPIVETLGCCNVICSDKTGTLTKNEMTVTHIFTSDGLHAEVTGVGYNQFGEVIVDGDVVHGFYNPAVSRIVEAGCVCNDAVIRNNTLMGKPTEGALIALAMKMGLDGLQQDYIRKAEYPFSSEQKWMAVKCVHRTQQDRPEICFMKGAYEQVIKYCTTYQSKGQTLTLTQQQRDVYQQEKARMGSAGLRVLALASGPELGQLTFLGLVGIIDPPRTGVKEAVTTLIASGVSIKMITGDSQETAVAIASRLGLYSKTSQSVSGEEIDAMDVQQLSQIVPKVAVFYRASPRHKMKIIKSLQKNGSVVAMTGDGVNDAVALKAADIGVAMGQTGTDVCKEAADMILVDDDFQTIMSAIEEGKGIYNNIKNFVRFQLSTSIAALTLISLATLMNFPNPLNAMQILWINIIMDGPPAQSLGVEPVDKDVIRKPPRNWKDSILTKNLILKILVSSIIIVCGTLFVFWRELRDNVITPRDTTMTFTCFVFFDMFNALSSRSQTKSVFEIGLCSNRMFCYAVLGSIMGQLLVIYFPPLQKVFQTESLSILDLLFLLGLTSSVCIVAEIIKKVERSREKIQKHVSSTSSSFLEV
# UniProt Q9BSB4: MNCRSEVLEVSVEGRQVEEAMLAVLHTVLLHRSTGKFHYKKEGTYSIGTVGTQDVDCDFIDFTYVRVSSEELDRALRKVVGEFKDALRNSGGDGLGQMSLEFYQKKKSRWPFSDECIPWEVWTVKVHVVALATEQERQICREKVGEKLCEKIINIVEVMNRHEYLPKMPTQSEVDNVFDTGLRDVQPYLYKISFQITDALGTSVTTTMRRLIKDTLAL
# UniProt Q66PJ3: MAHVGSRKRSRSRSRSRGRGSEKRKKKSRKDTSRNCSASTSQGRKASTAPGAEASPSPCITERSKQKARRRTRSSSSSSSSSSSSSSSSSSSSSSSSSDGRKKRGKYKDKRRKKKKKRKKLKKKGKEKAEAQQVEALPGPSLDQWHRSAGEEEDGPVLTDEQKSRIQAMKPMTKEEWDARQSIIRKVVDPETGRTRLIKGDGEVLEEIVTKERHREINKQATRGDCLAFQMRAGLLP
# UniProt P46379: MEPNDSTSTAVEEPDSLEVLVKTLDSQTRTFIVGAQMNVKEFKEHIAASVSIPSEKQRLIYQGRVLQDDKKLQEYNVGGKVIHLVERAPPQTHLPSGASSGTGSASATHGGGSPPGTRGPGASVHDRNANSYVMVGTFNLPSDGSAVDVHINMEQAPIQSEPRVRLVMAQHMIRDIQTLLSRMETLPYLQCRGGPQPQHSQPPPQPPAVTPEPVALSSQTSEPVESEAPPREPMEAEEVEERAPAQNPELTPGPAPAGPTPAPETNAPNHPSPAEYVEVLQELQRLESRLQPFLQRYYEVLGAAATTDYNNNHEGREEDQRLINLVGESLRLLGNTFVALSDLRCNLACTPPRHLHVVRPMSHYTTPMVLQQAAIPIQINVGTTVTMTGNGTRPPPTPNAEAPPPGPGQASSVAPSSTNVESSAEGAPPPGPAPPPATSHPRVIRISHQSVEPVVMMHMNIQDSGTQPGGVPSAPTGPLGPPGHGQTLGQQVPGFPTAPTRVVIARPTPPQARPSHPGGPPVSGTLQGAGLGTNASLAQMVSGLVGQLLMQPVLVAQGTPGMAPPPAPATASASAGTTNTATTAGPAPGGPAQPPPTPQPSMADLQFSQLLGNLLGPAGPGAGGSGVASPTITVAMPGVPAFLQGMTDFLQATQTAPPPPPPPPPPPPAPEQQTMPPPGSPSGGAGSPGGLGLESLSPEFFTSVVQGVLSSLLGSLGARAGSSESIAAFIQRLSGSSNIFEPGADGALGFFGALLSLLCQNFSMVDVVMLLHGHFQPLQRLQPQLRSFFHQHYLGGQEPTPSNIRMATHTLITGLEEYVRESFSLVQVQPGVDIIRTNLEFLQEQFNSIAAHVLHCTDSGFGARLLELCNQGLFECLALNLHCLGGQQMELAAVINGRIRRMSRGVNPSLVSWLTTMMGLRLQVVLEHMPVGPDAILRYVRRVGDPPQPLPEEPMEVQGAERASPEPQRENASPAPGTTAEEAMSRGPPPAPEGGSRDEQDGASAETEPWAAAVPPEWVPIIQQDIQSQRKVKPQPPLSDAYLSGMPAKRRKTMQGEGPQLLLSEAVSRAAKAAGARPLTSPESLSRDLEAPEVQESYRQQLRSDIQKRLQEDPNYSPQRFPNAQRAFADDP
# UniProt Q6IAA8, whole entry: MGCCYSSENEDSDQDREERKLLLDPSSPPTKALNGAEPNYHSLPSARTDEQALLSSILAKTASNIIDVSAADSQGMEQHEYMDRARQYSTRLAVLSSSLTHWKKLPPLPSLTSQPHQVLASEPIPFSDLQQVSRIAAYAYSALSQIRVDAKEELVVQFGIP
# UniProt Q96G97: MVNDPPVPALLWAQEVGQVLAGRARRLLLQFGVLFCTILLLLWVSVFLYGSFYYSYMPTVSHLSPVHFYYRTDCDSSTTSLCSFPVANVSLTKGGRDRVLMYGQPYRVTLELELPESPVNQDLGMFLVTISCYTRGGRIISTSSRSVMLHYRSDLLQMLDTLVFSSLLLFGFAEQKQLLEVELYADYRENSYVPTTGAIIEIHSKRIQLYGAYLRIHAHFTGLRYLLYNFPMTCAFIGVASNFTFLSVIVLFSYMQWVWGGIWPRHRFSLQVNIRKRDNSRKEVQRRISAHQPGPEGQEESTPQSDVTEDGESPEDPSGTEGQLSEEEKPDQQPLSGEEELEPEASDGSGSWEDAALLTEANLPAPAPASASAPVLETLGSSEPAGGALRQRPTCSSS
# UniProt Q9UIG0: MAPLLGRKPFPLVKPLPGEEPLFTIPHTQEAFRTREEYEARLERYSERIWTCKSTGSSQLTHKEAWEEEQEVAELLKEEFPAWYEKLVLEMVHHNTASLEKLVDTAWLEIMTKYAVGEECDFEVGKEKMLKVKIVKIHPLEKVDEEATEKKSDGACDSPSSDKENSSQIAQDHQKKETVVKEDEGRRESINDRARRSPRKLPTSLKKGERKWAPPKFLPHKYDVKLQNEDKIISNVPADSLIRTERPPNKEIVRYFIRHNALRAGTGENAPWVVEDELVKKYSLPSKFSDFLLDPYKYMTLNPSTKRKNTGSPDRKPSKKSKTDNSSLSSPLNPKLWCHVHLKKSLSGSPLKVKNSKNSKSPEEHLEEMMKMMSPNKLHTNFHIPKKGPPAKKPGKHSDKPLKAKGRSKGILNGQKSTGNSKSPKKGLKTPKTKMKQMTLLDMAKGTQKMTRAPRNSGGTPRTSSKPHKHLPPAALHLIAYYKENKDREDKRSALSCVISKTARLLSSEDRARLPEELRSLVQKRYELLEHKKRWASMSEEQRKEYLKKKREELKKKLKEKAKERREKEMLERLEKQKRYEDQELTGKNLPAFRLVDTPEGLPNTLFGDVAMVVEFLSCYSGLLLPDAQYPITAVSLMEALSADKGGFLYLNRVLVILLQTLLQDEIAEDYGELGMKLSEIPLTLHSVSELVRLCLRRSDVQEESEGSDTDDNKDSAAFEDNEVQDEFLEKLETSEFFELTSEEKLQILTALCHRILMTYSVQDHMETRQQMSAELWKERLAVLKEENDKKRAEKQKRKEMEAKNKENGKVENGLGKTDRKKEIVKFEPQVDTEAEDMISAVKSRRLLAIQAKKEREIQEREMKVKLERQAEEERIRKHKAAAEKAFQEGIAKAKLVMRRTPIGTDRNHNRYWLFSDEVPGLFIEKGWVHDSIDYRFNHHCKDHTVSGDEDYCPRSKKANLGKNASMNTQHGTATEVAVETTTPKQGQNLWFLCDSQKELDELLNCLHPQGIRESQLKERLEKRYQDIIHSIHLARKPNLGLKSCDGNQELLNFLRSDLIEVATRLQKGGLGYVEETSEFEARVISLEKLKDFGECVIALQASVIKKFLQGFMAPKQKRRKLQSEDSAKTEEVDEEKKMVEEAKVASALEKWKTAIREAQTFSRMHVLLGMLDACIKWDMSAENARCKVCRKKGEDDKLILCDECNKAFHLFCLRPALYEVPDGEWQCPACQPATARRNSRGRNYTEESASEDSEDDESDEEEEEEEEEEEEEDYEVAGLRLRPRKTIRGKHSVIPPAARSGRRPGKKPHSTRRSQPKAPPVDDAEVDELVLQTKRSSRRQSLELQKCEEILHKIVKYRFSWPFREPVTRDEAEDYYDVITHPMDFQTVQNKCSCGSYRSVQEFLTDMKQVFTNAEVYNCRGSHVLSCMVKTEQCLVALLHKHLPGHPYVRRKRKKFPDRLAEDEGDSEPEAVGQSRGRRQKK
# UniProt Q9UII2: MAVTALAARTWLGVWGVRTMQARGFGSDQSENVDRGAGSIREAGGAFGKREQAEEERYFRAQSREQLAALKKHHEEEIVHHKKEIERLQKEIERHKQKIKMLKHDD
# UniProt Q14137: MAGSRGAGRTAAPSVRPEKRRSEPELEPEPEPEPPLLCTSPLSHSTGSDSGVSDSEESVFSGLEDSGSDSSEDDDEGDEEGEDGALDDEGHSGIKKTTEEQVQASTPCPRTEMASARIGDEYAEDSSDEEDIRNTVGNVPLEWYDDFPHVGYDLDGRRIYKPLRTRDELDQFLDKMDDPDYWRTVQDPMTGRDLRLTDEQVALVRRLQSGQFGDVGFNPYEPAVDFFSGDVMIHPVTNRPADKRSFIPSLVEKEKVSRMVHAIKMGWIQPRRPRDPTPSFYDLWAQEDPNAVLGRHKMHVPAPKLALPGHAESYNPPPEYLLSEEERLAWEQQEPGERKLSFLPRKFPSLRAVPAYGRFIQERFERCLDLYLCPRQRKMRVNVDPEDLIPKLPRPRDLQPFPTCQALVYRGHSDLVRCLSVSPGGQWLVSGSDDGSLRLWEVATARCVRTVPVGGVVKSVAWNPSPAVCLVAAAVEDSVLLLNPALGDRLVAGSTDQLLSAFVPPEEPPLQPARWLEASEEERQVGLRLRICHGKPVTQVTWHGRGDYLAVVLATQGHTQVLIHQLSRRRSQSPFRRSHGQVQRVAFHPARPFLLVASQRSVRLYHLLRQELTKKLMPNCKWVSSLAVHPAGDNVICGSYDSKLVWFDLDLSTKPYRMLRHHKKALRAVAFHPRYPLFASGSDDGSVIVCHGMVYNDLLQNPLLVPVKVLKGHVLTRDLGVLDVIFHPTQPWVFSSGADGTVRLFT
# This is one part of the list.
# Compound: COc1ccc(Cn2ccc3ccc(C(=O)NO)cc32)cc1
# Test: dose-dependent thermal stabilisation call (2D-TPP, DLPTP, 10% FDR) (binary (1 = stabilised)); higher = stabilised by the compound
# Details: system: HL-60 intact cells; concentration range 0.04-10 µM
row,Target,dose-dependent thermal stabilisation call
1,BUB1B (UniProt O60566),inactive: 0
2,ATP2C1 (UniProt P98194),inactive: 0
3,C12ORF44 (UniProt Q9BSB4),inactive: 0
4,ARL6IP4 (UniProt Q66PJ3),inactive: 0
5,BAT3 (UniProt P46379),inactive: 0
6,ATP2A3 (UniProt Q93084),inactive: 0
7,C11ORF59 (UniProt Q6IAA8),inactive: 0
8,BSCL2 (UniProt Q96G97),inactive: 0
9,BAZ1B (UniProt Q9UIG0),inactive: 0
10,ATPIF1 (UniProt Q9UII2),inactive: 0
11,BOP1 (UniProt Q14137),inactive: 0
